Reference: patent US20250147051A1, “METHOD FOR DETECTING A TAU PROTEIN IN A SALIVA SAMPLE” (GTINVENT LIMITED, priority 2022, published 2025)

B1: S1D12 mAb: S1D12 reformatted as mAb; heavy chain SEQ ID NO: 445, light chain SEQ ID NO: 446 (antibody)
heavy: QVQLQESGPSLVKPSQTLSLTCTVSGFSLNNNAVGWVRQAPGKVPESLVGCSSDGTCYYNSALKSRLDITRDTSKNQISLSLSSVTTDDAAVYYCTRGHYSIYGYDYLGTIDYWGPGLLVTVSSAKTTAPSVYPLAPVCGDTTGSSVTLGCLVKGYFPEPVTLTWNSGSLSSGVHTFPAVLQSDLYTLSSSVTVTSSTWPSQSITCNVAHPASSTKVDKKIEPRGPTIKPCPPCKCPAPNLLGGPSVFIFPPKIKDVLMISLSPIVTCVVVDVSEDDPDVQISWFVNNVEVHTAQTQTHREDYNSTLRVVSALPIQHQDWMSGKEFKCKVNNKDLPAPIERTISKPKGSVRAPQVYVLPPPEEEMTKKQVTLTCMVTDFMPEDIYVEWTNNGKTELNYKNTEPVLDSDGSYFMYSKLRVEKKNWVERNSYSCSVVHEGLHNHHTTKSFSRTPGK
light: QAVLTQPSSVSGSLGQRVSITCSGSSSNVGGGNSVGWYQHLPGSGLKTIIYDTNSRPSGVPDRFSGSRSGNTATLTINSLQAEDEGDYYCVTGDSTTHDDLVGSGTRLTVLGGQPKSSPSVTLFPPSSEELETNKATLVCTITDFYPGVVTVDWKVDGTPVTQGMETTQPSKQSNNKYMASSYLTLTARAWERHSSYSCQVTHEGHTVEKSLSRADCS
modifications: S1D12 mAB Heavy Chain; S1D12 mAB Light Chain
B2: S1D12: anti-tau binding molecule defined by its CDRs; scAb sequence SEQ ID NO: 32 (protein)
scFv: QVQLQESGPSLVKPSQTLSLTCTVSGFSLNNNAVGWVRQAPGKVPESLVGCSSDGTCYYNSALKSRLDITRDTSKNQISLSLSSVTTDDAAVYYCTRGHYSIYGYDYLGTIDYWGPGLLVTVSSEGKSSGASGESKVDDQAVLTQPSSVSGSLGQRVSITCSGSSSNVGGGNSVGWYQHLPGSGLKTIIYDTNSRPSGVPDRFSGSRSGNTATLTINSLQAEDEGDYYCVTGDSTTHDDLVGSGTRLTVLG
modifications: S1D12 amino acid sequence

System: tau
Test: Capture ELISA of transgenic mouse plasma
Settings: S1D12 mAb capture; for plasma tau level, L1 5 month / plasma tau level, L1 9 month / plasma tau level, L66+/+ 5 month / plasma tau level, L66+/- 5 month / plasma tau level, WT 5 month / plasma tau level, WT 9 month: S1G2 scAb detection; for plasma tau level, L1 5 month / plasma tau level, L1 9 month: dGA calibrator; for plasma tau level, L66+/+ 5 month / plasma tau level, L66+/- 5 month / plasma tau level, WT 5 month / plasma tau level, WT 9 month: hT40 calibrator
Experimental: Plasma samples from WT, L1, L66+/− and L66+/+ of various ages (1.5-9 months) were taken as described. Mice were terminally anaesthetized using an overdose of sodium pentobarbital and blood was collected through cardiac puncture through a Plastipak syringe pre-rinsed with heparinised saline heparin (10 U/ml) (Heparin sodium salt; Sigma-Aldrich) and transferred into a plastic vial containing lithium heparin anticoagulant (Sarstedt Ltd.) Blood samples, kept on ice for no more than 30 minutes, were centrifuged to obtain plasma at 2000×g for 5 minutes at 6° C. Plasma samples were stored at −20° C.
For mouse plasma capture ELISA, 100 μL capture mAb was coated to the bottom of a black nunc 96 well ‘maxisorp’ plate at 2.5 μg/ml and incubated for 1 hour at 37° C. After washing and blocking as normal, several known standard solutions were set up in triplicate starting at 20 ng/ml of the desired protein before double diluted in the remaining wells. Mouse samples were added to wells in duplicate with a blank in between each sample group. Line1 plasma was diluted 1:10 before addition to plate to account for its high concentration while other samples were diluted 1:2 to account for potential matrix effects. These samples were left to incubate at RT for 1 hour. HRP-conjugated secondary scAb (conjugation carried out according to manufacturer's guidelines, Abcam) was added to each well and left to incubate at RT for 1 hour. The ELISA was developed using SuperSignal ELISA Femto Substrate (Thermo Scientific) and total luminescence was read on Clariostar Plus plate reader (BMG Labtech). Tau concentrations were established using a 4-parameter fit on concentration curves generated from recombinant tau protein spiked into samples at known concentration. For WT and L66 hT40 was used as a calibrator while dGA was used for L1 calibration.

Molecule | increase in signal intensity, Line66+/+ compared to wild type plasma (CB7 scAb detection, 1.5 months) | plasma tau level, L1 5 month | plasma tau level, L1 9 month | plasma tau level, L66+/+ 5 month | plasma tau level, L66+/- 5 month | plasma tau level, WT 5 month | plasma tau level, WT 9 month
B1 | at least 1000 fold | 12.355 ng/mL | 13.661 ng/mL | 1.937 ng/mL | 0.567 ng/mL | 1.947 ng/mL | 2.177 ng/mL
B2 |  | 12.355 ng/mL | 13.661 ng/mL | 1.937 ng/mL | 0.567 ng/mL | 1.947 ng/mL | 2.177 ng/mL
